In patent US20210238265A1 (Biogen, published 2021) one finds binding data, which are given here for two molecules.

The chains behind the UniProt entries cited, without tags or fusion partners. Where a name states a change or a piece, a line headed by the entry shows the natural chain unless it says otherwise.
UniProt P10636: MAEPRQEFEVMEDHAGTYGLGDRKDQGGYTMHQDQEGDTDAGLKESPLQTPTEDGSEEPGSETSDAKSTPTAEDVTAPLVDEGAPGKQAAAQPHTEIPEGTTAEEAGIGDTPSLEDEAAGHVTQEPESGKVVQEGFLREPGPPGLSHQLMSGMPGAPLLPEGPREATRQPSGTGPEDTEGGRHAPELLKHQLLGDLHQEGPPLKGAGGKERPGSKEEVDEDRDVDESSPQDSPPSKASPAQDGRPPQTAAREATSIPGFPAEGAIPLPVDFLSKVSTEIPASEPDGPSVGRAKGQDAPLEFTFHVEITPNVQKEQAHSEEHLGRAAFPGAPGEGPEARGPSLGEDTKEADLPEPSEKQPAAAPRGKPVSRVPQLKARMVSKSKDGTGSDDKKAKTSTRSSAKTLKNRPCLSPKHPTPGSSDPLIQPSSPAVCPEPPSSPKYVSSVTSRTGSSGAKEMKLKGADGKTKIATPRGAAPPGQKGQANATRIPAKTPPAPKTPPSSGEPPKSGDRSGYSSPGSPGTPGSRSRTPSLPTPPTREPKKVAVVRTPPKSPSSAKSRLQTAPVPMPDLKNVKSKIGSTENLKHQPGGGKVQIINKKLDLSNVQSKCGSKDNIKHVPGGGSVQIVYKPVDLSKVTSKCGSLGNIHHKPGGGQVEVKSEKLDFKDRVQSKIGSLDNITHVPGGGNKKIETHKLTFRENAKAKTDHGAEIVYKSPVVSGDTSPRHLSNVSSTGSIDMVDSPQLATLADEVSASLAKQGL

Results are given in words; binding and its absence hold for the method and conditions named. Some entries that bind do so weakly or less than the wild type.

The target of assay [1] is PHFTau extracted from AD brain (paired helical filaments containing pathologically phosphorylated tau filaments) (human) (UniProt P10636). As to the kind of experiment: Western blot.
Assay [2] concerns the target Human tau P301L (pathological tau aggregates in TauP301L transgenic mouse brain) (human) (UniProt P10636). As to the kind of experiment: immunohistochemistry on transgenic mouse brain sections.
For assay [3] the target is unchanged. As to the kind of experiment: immunohistochemistry (DAB) on transgenic mouse brain sections.

B1: Recombinant human antibody NI-105.24B2 (antibody, V domains shown)
VH: QVQLVQSGAEVKKPGASVKVSCKASGYTFVNYIIHWVRQAPGQGLEWMGIINPNGGNTSYAEKFQARVTLTSDTSTSTVYMDLSSLTSEDTAVYYCAVLSPSNPWGQGTTVTVSS
VL: SYELTQPPSVSVSPGQTAGITCSGDALPKQFVYWYQKKPGQAPVLLIYKDTERPSRIPERFSGSTSGTTVALTINGVQAEDEADYYCQSADRSGALWVFGGGTKLTVL
Regarding B1, the binding result in assay [1] is reported as “binds”.

B2: Recombinant human antibody NI-105.4E4 (antibody, V domains shown)
VH: EVQLVESGGGLVQPGGSLKLSCAASGFNFNISAIHWVRQASGKGLEWVGRIRSKSHNYATLYAASLKGRFTLSRDDSRNTAYLQMSSLQTEDMAVYYCTVLSANYDTFDYWGQGTLVTVSS
VL: SYELTQPPSVSVSPGQTARISCFGDTLPKQYTYWYQQKPGQAPVLVIYKDTERPSGIPERFSGSSSGTTVTLTISGVQAEDEADYYCLSADNSATWVFGGGTKVTVL
For the molecule B2, the binding result in assay [2] and in assay [3] was “binds” throughout.
